Some results were stated once for a whole list of compounds, not compound by compound.
Legend:
[1] = system: Pseudomonas syringae pv. tomato; experiment: Pseudomonas syringae pv. tomato in vitro cell test; format: cell-based; settings: 20 ppm of active ingredient; 24 h of incubation
Experimental: (§1) • Solvent: DMSO • Culture medium: LB broth medium (Luria Broth Miller) Sigma • Inoculum: bacteria suspension Compounds were solubilized in DMSO and the solution used to prepare the required range of concentrations. The final concentration of DMSO used in the assay was ≤1%. Inoculum was prepared from a pre-culture of bacteria grown in liquid medium and diluted to the desired optical density (OD). Compounds were evaluated for their ability to inhibit bacteria growth in liquid culture assay. The compounds were added in the desired concentrations to culture medium containing the bacteria suspension. After 24 h of incubation, the efficacy of compounds was determined by spectrometric measurement of bacteria growth. Inhibition was determined by comparing the absorbance values in wells containing the compounds with the absorbance in control wells without active ingredients.

[2] = system: Colletotrichum lindemuthianum; experiment: Colletotrichum lindemuthianum in vitro cell test; format: cell-based; settings: 6 days incubation
Experimental: (§2) • Solvent: DMSO • Culture medium: 14.6 g anhydrous D-glucose (VWR), 7.1 g Mycological Peptone (Oxoid), 1.4 g granulated Yeast Extract (Merck), QSP 1 liter • Inoculum: spores suspension Fungicides were solubilized in DMSO and the solution used to prepare the required range of concentrations. The final concentration of DMSO used in the assay was ≤[…]1%. A spore suspension of C. lindemuthianum was prepared and diluted to the desired spore density. Fungicides were evaluated for their ability to inhibit spores germination and mycelium growth in liquid culture assay. The compounds were added in the desired concentration to the culture medium with spores. After 6 days incubation, fungi-toxicity of compounds was determined by spectrometric measurement of mycelium growth. Inhibition of fungal growth was determined by comparing the absorbance values in wells containing the fungicides with the absorbance in control wells without fungicides.

[3] = system: Xanthomonas campestris pv. campestris; experiment: Xanthomonas campestris pv. campestris in vitro cell test; format: cell-based; settings: 24 h of incubation
Experimental: as §1

Alternaria alternata = Alternaria alternata in vitro cell test; format: cell-based; settings: 5 days incubation
Experimental: as §2, with “of A. alternata” for “of C. lindemuthianum”, “inhibit spore” for “inhibit spores”, “After 5” for “After 6”

[4] = system: salicylate responsive promoter sequence of the PR1 (pathogenesis-related protein I) gene (AT2G14610); experiment: Induction of defense gene expression in Arabidopsis thaliana (PR1 promoter-GFP reporter plants); format: in vivo; settings: 3rd day after spraying, mock treated leaves set as 1.00
Experimental: Arabidopsis thaliana reporter plants containing the coding sequence of a green fluorescent protein (GFP) linked to the salicylate responsive promoter sequence of the PR1 (pathogenesis-related protein I) gene (AT2G14610) were grown for five days and then sprayed with compounds. On the 3rd day after spraying, plant fluorescence was assessed with a MacroFluo instrument from Leica Microsystems (Wetzlar, Germany). Fluorescences were quantified with the Meta-Morph Microscopy Automation & Image Analysis Software (Molecular Devices, Sunnyvale, Calif., United States). Background fluorescence in mock treated leaves was set as 1.00.

SMILES | efficacy (inhibition of bacteria growth; no direct activity) [1] [%] | efficacy (inhibition of fungal growth; no direct activity) ([2]; 5 ppm of active ingredient) [%] | efficacy (inhibition of bacteria growth; no direct activity) ([3]; 5 ppm of active ingredient) [%] | efficacy (inhibition of bacteria growth; no direct activity) ([3]; 20 ppm of active ingredient) [%] | efficacy (inhibition of fungal growth; no direct activity) (Alternaria alternata; 5 ppm of active ingredient) [%] | efficacy (inhibition of fungal growth; no direct activity) (Alternaria alternata; 20 ppm of active ingredient) [%] | efficacy (inhibition of fungal growth; no direct activity) ([2]; 20 ppm of active ingredient) [%] | relative fluorescence value ([4]; 75 ppm) | relative fluorescence value ([4]; 300 ppm)
CCOC(=O)C1(C2(NC(=O)c3sc(Br)c(Br)c3C)CC2)CC1 [I.017] | ≤ 30 | ≤ 30 | ≤ 30 | ≤ 30 | ≤ 30 | ≤ 30 |  |  | 
Cc1c(C(=O)NC2(C3(C(=O)OC(C)C)CC3)CC2)sc(Br)c1Br [I.020] | ≤ 30 | ≤ 30 | ≤ 30 | ≤ 30 | ≤ 30 | ≤ 30 |  |  | 
Cc1c(C(=O)NC2(C#N)CC2)sc(Br)c1Br [I.027] | ≤ 30 | ≤ 30 | ≤ 30 | ≤ 30 | ≤ 30 | ≤ 30 | ≤ 30 |  | 
Cc1c(C(=O)NC(C#N)C(C)C)sc(Br)c1Br (stereo not drawn) [I.028] | ≤ 30 |  | ≤ 30 | ≤ 30 | ≤ 30 |  |  |  | 
Cc1c(C(=O)NC(C#N)c2ccccc2)sc(Br)c1Br (stereo not drawn) [I.029] | ≤ 30 | ≤ 30 | ≤ 30 | ≤ 30 | ≤ 30 | ≤ 30 | ≤ 30 |  | 
Cc1c(C(=O)NC(C#N)Cc2ccccc2)sc(Br)c1Br (stereo not drawn) [I.030] | ≤ 30 | ≤ 30 | ≤ 30 | ≤ 30 | ≤ 30 | ≤ 30 | ≤ 30 |  | 
Cc1c(C(=O)NC(C(N)=O)C(C)C)sc(Br)c1Br (stereo not drawn) [I.051] | ≤ 30 | ≤ 30 | ≤ 30 | ≤ 30 | ≤ 30 | ≤ 30 | ≤ 30 |  | 
CCOC(=O)CN(C)C(=O)c1sc(Cl)c(Cl)c1C [I.057] | ≤ 30 | ≤ 30 | ≤ 30 | ≤ 30 | ≤ 30 | ≤ 30 |  |  | 
CCOC(=O)C(C(C)C)N(C)C(=O)c1sc(Br)c(Br)c1C (stereo not drawn) [I.058] | ≤ 30 | ≤ 30 | ≤ 30 | ≤ 30 | ≤ 30 | ≤ 30 | ≤ 30 |  | 
CCOC(=O)C(C(C)C)N(C)C(=O)c1sc(Cl)c(Cl)c1C (stereo not drawn) [I.059] | ≤ 30 | ≤ 30 | ≤ 30 | ≤ 30 | ≤ 30 | ≤ 30 | ≤ 30 |  | 
Cc1c(C(=O)NC2(C(N)=O)CC2)sc(Cl)c1Cl [I.063] | ≤ 30 | ≤ 30 | ≤ 30 | ≤ 30 | ≤ 30 | ≤ 30 | ≤ 30 |  | 
Cc1c(C(=O)NC2CCNC2=O)sc(Br)c1Br (stereo not drawn) [I.064] | ≤ 30 | ≤ 30 | ≤ 30 | ≤ 30 | ≤ 30 | ≤ 30 | ≤ 30 |  | 
Cc1c(C(=O)NC2CNC(=O)C2)sc(Br)c1Br (stereo not drawn) [I.065] | ≤ 30 | ≤ 30 | ≤ 30 | ≤ 30 | ≤ 30 | ≤ 30 | ≤ 30 |  | 
Cc1c(C(=O)NC(C(=O)NCC#N)C(C)C)sc(Br)c1Br (stereo not drawn) [I.075] | ≤ 30 | ≤ 30 | ≤ 30 | ≤ 30 | ≤ 30 | ≤ 30 | ≤ 30 |  | 
Cc1c(C(=S)NC2(C(=O)OC3CCC3)CC2)sc(Br)c1Br [I.127] |  |  |  |  |  |  |  | above 2 | above 2
Cc1c(C(=O)NC2(C(N)=O)CC2)sc(Br)c1Br [I.129] |  |  |  |  |  |  |  | above 2 | above 2
Cc1c(C(=O)NC2(C(=O)NC3CCC3)CC2)sc(Br)c1Br [I.135] |  |  |  |  |  |  |  |  | above 2
Cc1c(C(=O)NC(C(=O)OC(C)C)C2CC2)sc(Cl)c1Cl (stereo not drawn) [I.154] |  |  |  |  |  |  |  | above 2 | above 2
Cc1c(C(=O)NC2(C(=O)OCC3CC3)CCC2)sc(Cl)c1Cl [I.155] |  |  |  |  |  |  |  | above 2 | above 2
CCCCOC(=O)C1(NC(=O)c2sc(Cl)c(Cl)c2C)CCC1 [I.157] |  |  |  |  |  |  |  | above 2 | above 2
Cc1c(C(=O)NC2(C(=O)OC3CCCCC3)CCC2)sc(Cl)c1Cl [I.158] |  |  |  |  |  |  |  | above 2 | above 2
Cc1c(C(=O)NC2(C(N)=S)CC2)sc(Cl)c1Cl [I.159] |  |  |  |  |  |  |  |  | above 2
Cc1c(C(=O)NC(C(=O)OC(C)(C)C)C2CC2)sc(Cl)c1Cl (stereo not drawn) [I.161] |  |  |  |  |  |  |  | above 2 | above 2
CCOC(=O)CN(C(=O)c1sc(Cl)c(Cl)c1C)C1CC1 [I.168] |  |  |  |  |  |  |  |  | above 2
Cc1c(C(=O)NC2(C#N)CCSCC2)sc(Br)c1Br [I.169] |  |  |  |  |  |  |  |  | above 2
Cc1c(C(=S)NCC(=O)O)sc(Cl)c1Cl [I.172] |  |  |  |  |  |  |  | above 2 | above 2
Cc1c(C(=S)NC(C)C(=O)O)sc(Br)c1Br (stereo not drawn) [I.173] |  |  |  |  |  |  |  | above 2 | above 2
